Some of the results follow. The exact form of the protein is not confirmed.

The target in the assay is T1, ELF2 (UniProt Q15723).
T1 sequence: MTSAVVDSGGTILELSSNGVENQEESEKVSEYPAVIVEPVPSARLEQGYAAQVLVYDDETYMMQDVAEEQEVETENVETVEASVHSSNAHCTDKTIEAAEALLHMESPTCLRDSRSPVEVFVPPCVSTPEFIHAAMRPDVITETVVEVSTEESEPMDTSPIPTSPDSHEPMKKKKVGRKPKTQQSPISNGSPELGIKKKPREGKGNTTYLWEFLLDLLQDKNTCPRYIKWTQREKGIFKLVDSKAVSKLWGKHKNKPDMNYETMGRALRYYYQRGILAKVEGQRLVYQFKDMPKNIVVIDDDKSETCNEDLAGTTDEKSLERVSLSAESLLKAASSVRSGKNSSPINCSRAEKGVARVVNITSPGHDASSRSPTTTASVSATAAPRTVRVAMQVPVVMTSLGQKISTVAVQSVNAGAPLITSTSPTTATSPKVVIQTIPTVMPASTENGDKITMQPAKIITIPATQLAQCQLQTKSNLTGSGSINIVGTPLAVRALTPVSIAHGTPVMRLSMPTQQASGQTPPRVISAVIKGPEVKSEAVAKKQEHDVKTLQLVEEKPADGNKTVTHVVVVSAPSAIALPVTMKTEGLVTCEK
The experiment in a line: DAPPL (digital affinity profiling via proximity ligation, sequencing). Conditions: 10 mM Tris-HCl pH 7.5, 50 mM NaCl, 1 mM DTT, 4% glycerol, room temperature, 30 min; GST-TFs on glutathione beads, 16-mer random dsDNA library, 0.1% …; high values mean tight binding; double strand, one strand shown; scale: fold enrichment (6-mer frequency, TF over GST control).
As for ATGACA, the binding signal came out at 1.23.

Sequence GCCCTT displayed a binding signal of 1.16.

On to TGACTC, for which the binding signal turned out to be 1.23.

Regarding AATGGG, the binding signal was determined as 1.18.

GTTAAC showed a binding signal of 1.12.

Regarding ACTGGC, the binding signal was 1.09.

For the sequence ATCGAA, the binding signal was 1.09.

With TATCGT, the binding signal turned out to be 1.07.

In turn, TACTTA displayed a binding signal of 1.18.

The sequence ATGTTC yielded a binding signal of 1.23.

Sequence ATGGTT returned a binding signal of 1.28.

The sequence TACTGC came in with a binding signal of 1.22.

ATTTGA came in with a binding signal of 1.16.

For the sequence AAATAT, the binding signal was found to be 1.44.

For the sequence GATGAC, the binding signal came out at 1.42.

In turn, ATCTCG had a binding signal of 1.27.

Turning to GTGCTC, the binding signal worked out at 1.13.

As to ATGGGT, the binding signal is 1.26.

The sequence CAAAAC gave a binding signal of 1.25.

Take TTTTGA: the binding signal was 1.09.

The sequence TACTCT displayed a binding signal of 1.31.

Consider TGTTCT, for which the binding signal stood at 1.27.

Regarding CGTATT, the binding signal stood at 1.19.

Turning to CTTTCC, the binding signal is 2.21.

With GTATTC, the binding signal came out at 1.3.

In turn, CATGAA gave a binding signal of 1.02.

In turn, TGCCGC yielded a binding signal of 1.22.

Turning to TTTGCT, the binding signal was 1.21.

Sequence TTTCTT gave a binding signal of 1.39.

As for TCCCCA, the binding signal was 1.32.

As for GAACCA, the binding signal came out at 1.04.

As for AACTTA, the binding signal was determined as 1.18.

In turn, ATCGCC yielded a binding signal of 1.22.

Take ATGTAA: the binding signal was 1.24.

Turning to GTTTCG, the binding signal came out at 1.24.

GCCTTG came in with a binding signal of 1.18.

The sequence AATGAT yielded a binding signal of 1.15.

For the sequence TGGTTC, the binding signal stood at 1.45.

Turning to GAACCC, the binding signal was determined as 1.24.
